Experimental data published in the supplement of paper PMC10849652.
The other results are listed elsewhere or left out.

Amino acid sequences for entries named in this document (tags omitted). A change or cut given only in a name is not applied to a line headed by its entry.
UniProt Q9NYB9: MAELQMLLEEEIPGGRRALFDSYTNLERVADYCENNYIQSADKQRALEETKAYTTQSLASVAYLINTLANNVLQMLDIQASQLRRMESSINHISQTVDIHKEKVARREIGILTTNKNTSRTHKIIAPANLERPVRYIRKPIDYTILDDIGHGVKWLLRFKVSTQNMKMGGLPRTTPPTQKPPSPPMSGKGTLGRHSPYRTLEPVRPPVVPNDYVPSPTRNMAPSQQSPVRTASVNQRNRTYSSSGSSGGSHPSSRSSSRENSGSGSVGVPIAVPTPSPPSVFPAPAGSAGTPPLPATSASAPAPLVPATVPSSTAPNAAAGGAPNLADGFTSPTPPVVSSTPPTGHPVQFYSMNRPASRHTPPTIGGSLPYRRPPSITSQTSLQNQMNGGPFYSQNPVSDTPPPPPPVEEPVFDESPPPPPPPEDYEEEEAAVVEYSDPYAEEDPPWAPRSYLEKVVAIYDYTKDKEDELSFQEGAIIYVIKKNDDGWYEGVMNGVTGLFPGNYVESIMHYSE
UniProt Q4L235: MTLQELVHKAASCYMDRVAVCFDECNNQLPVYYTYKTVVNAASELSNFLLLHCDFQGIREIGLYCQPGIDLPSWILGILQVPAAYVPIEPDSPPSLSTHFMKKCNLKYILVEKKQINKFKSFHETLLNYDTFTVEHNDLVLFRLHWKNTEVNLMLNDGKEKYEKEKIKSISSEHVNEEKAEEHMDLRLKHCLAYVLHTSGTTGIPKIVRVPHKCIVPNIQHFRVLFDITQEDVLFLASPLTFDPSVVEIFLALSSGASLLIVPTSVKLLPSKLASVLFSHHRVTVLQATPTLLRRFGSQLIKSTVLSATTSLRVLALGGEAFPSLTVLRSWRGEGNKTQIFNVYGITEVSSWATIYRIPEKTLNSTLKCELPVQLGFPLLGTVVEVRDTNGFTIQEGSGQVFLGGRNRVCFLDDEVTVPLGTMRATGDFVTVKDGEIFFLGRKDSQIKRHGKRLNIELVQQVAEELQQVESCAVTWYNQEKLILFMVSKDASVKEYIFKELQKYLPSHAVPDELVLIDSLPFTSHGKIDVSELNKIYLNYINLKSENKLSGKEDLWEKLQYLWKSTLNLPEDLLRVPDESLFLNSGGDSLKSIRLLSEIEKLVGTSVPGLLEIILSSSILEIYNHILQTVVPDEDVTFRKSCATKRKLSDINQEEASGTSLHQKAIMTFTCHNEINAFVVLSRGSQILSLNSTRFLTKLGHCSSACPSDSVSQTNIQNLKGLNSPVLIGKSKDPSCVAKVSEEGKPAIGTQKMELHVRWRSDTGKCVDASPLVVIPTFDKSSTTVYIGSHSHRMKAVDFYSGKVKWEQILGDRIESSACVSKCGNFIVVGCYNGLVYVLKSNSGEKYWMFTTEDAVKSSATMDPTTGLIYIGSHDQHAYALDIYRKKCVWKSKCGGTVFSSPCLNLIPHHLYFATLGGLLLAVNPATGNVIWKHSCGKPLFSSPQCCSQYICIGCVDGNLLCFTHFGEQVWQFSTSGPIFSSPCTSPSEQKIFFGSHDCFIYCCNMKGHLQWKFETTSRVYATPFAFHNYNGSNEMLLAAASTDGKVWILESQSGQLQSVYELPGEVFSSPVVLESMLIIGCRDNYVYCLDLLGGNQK
UniProt P09110: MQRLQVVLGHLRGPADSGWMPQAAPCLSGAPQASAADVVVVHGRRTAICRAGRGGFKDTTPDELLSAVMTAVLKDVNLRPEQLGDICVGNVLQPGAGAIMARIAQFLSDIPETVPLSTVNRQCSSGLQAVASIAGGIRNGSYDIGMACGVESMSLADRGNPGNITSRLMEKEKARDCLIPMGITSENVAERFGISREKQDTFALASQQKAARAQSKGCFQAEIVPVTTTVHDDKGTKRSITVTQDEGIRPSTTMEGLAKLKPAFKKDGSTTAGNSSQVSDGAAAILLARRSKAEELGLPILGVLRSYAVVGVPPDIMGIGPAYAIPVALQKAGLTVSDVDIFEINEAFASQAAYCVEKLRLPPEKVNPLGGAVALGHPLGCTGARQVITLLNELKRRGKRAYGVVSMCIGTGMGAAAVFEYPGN
UniProt Q9NPJ3: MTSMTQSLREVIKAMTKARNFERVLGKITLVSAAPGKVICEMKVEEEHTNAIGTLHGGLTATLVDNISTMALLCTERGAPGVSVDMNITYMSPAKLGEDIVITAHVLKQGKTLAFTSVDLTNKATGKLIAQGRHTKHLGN
UniProt Q4G176: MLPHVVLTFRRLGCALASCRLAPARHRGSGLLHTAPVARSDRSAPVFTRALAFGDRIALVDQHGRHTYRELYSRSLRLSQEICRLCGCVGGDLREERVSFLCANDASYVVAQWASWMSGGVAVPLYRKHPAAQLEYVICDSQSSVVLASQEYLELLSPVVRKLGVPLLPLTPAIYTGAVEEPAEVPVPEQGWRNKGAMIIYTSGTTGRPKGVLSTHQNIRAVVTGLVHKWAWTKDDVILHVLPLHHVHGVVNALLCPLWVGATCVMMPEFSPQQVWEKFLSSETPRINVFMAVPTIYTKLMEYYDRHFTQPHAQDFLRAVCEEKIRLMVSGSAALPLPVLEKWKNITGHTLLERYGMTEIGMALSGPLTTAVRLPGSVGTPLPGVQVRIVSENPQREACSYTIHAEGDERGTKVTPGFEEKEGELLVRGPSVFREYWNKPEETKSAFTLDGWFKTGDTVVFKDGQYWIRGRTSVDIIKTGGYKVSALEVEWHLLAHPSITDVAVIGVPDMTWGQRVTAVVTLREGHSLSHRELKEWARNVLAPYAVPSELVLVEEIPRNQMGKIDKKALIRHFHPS
UniProt Q13685: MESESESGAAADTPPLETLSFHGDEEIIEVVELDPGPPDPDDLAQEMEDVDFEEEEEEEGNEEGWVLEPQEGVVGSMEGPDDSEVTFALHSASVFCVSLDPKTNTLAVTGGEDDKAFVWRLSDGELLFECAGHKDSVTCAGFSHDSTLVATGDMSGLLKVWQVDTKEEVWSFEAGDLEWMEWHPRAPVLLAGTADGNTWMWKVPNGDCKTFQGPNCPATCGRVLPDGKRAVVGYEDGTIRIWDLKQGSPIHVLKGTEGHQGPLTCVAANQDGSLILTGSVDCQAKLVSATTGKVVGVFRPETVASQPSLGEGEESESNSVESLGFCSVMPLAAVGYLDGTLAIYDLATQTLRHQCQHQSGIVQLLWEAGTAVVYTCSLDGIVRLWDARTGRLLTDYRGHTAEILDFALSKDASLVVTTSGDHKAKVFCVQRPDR
UniProt Q9NP58: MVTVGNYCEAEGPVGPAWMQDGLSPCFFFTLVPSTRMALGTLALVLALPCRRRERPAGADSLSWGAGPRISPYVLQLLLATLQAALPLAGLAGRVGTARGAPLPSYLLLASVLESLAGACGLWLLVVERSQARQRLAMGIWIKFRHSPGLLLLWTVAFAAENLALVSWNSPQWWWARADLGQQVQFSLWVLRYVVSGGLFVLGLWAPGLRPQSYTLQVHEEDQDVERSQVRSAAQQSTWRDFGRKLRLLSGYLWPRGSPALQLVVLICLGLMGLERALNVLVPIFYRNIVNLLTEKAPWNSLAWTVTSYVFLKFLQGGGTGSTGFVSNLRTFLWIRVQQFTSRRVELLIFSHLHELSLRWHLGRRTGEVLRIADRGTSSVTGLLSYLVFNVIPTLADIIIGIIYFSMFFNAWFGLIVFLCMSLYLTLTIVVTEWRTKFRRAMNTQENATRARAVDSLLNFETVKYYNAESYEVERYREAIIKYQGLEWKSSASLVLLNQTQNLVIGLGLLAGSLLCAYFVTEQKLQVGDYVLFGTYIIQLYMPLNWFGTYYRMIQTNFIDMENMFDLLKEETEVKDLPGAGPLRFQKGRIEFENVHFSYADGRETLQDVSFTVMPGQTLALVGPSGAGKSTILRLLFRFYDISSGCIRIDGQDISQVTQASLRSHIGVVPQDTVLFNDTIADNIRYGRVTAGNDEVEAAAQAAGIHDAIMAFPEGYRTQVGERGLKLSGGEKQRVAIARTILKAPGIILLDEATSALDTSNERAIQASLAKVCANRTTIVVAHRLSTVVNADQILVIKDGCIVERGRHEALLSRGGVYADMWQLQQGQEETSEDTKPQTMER
UniProt P07311: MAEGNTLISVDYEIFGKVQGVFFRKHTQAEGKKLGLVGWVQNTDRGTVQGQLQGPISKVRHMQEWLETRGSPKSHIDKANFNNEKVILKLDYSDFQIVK
UniProt Q13443: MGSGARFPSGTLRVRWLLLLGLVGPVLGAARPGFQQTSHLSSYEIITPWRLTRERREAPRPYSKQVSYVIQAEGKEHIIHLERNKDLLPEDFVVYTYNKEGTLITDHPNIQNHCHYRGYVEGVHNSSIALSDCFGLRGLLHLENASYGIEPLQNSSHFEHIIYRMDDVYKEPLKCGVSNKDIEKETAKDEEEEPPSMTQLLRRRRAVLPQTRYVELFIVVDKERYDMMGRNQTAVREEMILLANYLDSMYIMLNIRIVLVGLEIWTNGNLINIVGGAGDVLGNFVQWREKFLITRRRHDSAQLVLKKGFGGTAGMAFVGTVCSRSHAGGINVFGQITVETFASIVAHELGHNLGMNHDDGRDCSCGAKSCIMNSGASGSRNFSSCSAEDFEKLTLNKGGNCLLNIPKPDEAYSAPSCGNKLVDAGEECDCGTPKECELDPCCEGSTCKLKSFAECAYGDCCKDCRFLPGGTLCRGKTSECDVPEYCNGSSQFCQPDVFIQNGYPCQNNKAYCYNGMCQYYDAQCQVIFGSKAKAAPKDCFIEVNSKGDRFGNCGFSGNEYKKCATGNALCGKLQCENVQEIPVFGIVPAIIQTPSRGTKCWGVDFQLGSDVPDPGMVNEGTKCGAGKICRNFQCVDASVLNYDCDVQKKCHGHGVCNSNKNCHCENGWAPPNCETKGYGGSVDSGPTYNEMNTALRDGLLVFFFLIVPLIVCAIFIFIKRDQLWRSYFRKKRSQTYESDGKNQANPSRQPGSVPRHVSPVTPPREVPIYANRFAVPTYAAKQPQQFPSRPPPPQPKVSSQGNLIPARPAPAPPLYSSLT
UniProt Q9H568: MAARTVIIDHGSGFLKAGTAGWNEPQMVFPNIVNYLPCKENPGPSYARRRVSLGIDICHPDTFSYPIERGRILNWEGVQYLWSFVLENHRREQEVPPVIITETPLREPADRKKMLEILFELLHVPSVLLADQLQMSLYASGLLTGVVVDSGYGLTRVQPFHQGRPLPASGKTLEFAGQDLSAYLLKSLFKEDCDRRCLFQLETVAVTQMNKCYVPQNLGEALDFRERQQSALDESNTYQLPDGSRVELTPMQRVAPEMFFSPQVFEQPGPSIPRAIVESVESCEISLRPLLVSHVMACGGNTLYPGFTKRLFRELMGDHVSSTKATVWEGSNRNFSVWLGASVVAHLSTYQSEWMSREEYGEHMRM
UniProt P12814, whole entry, looked up: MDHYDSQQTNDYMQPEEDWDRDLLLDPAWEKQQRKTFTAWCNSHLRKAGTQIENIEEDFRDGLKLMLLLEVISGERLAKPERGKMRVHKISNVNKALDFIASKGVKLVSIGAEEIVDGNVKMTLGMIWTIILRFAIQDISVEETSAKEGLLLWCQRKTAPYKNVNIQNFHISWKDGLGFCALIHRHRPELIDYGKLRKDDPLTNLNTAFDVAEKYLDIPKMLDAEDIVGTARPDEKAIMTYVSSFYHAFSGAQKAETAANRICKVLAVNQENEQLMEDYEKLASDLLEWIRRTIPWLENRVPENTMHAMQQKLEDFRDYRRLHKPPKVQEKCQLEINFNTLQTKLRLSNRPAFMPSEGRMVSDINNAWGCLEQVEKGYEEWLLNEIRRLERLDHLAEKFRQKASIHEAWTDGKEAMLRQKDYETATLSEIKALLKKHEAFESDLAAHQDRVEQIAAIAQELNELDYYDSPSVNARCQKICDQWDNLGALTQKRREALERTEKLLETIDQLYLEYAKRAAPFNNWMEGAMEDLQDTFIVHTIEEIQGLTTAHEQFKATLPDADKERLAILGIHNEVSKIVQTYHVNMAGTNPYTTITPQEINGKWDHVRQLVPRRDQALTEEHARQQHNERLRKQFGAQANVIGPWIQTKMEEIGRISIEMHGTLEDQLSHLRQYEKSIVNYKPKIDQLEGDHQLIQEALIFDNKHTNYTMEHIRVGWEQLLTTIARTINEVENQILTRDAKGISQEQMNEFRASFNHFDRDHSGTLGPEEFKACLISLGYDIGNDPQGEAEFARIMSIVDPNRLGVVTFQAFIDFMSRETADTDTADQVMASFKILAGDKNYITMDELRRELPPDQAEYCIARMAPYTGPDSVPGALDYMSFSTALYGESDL
UniProt P00813: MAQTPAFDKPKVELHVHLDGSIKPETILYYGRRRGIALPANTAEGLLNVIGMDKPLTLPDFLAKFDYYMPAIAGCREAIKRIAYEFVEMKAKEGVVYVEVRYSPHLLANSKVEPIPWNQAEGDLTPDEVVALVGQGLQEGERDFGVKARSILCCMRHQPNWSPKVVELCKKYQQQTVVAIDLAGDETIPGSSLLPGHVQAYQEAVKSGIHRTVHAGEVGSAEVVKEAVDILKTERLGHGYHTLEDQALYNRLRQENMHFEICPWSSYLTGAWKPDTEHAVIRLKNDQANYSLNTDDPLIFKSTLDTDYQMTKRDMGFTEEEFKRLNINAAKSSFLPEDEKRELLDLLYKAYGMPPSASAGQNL

Compound: CC1=C2C(=CC=C1)N=C(N(C2=O)C3=CC=CC=C3C)CN4C=NC5=C(N=CN=C54)N
Assay: log2 fold change, soluble protein after heating vs DMSO (PISA); higher = thermal stabilisation; K562 cells, 10 uM, 30 min; active = over 0.2 and 3.5 SD of the protein, either way, in both replicates (recomputed)
Outline: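 Soluble protein was quantified by TMTpro 16plex LC-MS/MS after channel sums were equalised. It was obtained as the supernatant after 21,000xg for 90 min from pooled aliquots of K562 cells (2×10^6 cells/mL, 10 μM compound, 30 min) heated for 3 min across 48°C-58°C and extracted in PBS with 0.5% NP-40 at 4°C. Thermal stability values are relative to control samples and come from duplicates. They are given as log2 fold changes.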

| Target | log2 fold change |
| --- | --- |
| ABI2 (UniProt Q9NYB9) | inactive: 0.021 |
| ACTR3 (UniProt P61158) | inactive: -0.031 |
| AASDH (UniProt Q4L235) | inactive: -0.25 |
| ABCE1 (UniProt H0Y990) | inactive: 0 |
| AARSD1 isoform 3 (UniProt Q9BTE6) | inactive: 0.039 |
| ABCF1 (UniProt Q8NE71) | inactive: -0.046 |
| ACAA1 (UniProt P09110) | inactive: 0.055 |
| AAMDC (UniProt Q9H7C9) | inactive: 0.176 |
| ACOT13 (UniProt Q9NPJ3) | inactive: 0.01 |
| ACTB, A0A2R8YEA7 | inactive: -0.36 |
| ACSF3 (UniProt Q4G176) | inactive: 0.12 |
| AAMP (UniProt Q13685) | inactive: 0.014 |
| ADAMTS5 (UniProt Q9UNA0) | inactive: 0.152 |
| ACOT8 (UniProt O14734) | inactive: -0.029 |
| ABCB6 (UniProt Q9NP58) | inactive: 0.05 |
| ACYP1 (UniProt P07311) | inactive: 0.052 |
| AARS (UniProt P49588) | inactive: 0.016 |
| ADAM9 (UniProt Q13443) | inactive: -0.019 |
| ABCE1 (UniProt P61221) | inactive: 0.008 |
| ACTL8 (UniProt Q9H568) | inactive: 0.035 |
| ACTN1 (UniProt P12814) | inactive: 0.01 |
| ACAA2 (UniProt P42765) | inactive: 0.021 |
| ADA (UniProt P00813) | inactive: 0.034 |
| ACSS1 (UniProt Q9NUB1) | inactive: 0.129 |

Exported with bars between the fields: part of the list above
Target | log2 fold change
AAMP (UniProt Q13685) | inactive: 0.014
ADAMTS5 (UniProt Q9UNA0) | inactive: 0.152
